Some peptides are written in HELM: one residue between dots, names in brackets for other building blocks, links after the first $.
Assay: general procedure: Fmoc solid-phase peptide synthesis; tritylchloride resin (TCP resin); HATU/HOAt/DIPEA (conjugation to [Fe]FSC); DPPA/NaHCO3 (cyclisation)
Settings: late stage modification step, TFA salt

Substance: PEPTIDE1{R.G.D.[dF].K}|PEPTIDE2{R.G.D.[dF].K}|PEPTIDE3{R.G.D.[dF].K}|CHEM1{[FSC]}|CHEM2{[Succ]}|CHEM3{[Succ]}|CHEM4{[Succ]}$PEPTIDE1,PEPTIDE1,1:R1-5:R2|PEPTIDE2,PEPTIDE2,1:R1-5:R2|PEPTIDE3,PEPTIDE3,1:R1-5:R2|PEPTIDE1,CHEM2,5:R3-1:R1|PEPTIDE2,CHEM3,5:R3-1:R1|PEPTIDE3,CHEM4,5:R3-1:R1|CHEM2,CHEM1,1:R2-1:R1|CHEM3,CHEM1,1:R2-1:R2|CHEM4,CHEM1,1:R2-1:R3$$$V2.0
- final HPLC purity (RP-HPLC): > 95%
- step yield (run 1): 37% of theoretical yield
- step yield (run 2): approx. 40%

Substance: cyclo(-Arg(Pbf)-Gly-Asp(OtBu)-DPhe-Lys(Succ)-)
- step yield: 56% of theoretical yield
